Results published in publication PMC10748395.

Chains of the proteins cited; added tags and fusions are not shown. Lines headed by an entry give the natural chain unless they say otherwise; changes in a name come on top.
UniProt Q6ZN28: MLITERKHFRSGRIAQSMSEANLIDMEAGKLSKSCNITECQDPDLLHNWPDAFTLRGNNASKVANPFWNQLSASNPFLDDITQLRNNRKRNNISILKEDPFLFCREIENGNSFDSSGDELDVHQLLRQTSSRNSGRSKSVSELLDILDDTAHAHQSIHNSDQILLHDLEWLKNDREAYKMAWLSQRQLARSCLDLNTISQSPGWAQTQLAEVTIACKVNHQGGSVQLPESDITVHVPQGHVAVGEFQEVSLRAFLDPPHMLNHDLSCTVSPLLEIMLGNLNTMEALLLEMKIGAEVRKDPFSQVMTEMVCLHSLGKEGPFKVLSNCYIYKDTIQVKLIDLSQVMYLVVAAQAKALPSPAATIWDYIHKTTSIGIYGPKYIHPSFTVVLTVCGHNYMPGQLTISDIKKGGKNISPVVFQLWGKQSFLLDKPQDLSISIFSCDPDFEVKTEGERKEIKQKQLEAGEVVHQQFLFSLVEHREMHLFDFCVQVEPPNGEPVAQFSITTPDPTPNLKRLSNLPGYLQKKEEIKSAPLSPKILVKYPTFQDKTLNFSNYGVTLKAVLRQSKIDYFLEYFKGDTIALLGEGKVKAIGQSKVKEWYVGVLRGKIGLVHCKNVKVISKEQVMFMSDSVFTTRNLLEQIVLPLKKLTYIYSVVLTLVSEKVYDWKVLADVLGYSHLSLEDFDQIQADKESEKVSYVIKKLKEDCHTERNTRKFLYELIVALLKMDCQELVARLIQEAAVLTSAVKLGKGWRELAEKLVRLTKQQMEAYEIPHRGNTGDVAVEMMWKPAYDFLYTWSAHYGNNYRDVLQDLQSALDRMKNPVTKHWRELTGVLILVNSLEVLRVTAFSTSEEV

Assays:
[1] = target: MACC1 deletion mutant lacking the SH3 domain (ΔSH3), yeast two-hybrid fusion (human) (UniProt Q6ZN28); assay: two-hybrid; Gal4 system, vectors pGBT9 and pGAD10 or pGAD424, yeast reporter strain Y187, beta-galactosidase filter assay
[2] = target: V5-tagged ΔSH3-MACC1 (SW480/ΔSH3 cells) (human) (UniProt Q6ZN28); assay: co-IP; lysates of SW480/MACC1 or SW480/ΔSH3 cells immunoprecipitated with V5 or GIPC1 antibodies (IgG and beta-tubulin antibodies as negative controls), Western blot with GIPC1 or SH3BP4 antibody

Binder | binding [1] | binding [2]
GIPC1 (GAIP C-Terminus-Interacting Protein PDZ Domain Containing Family, Member 1), full-length, yeast two-hybrid fusion (protein, UniProt O14908 1-333) MPLGLGRRKKAPPLVENEEAEPGRGGLGVGEPGPLGGGGSGGPQMGLPPPPPALRPRLVFHTQLAHGSPTGRIEGFTNVKELYGKIAEAFRLPTAEVMFCTLNTHKVDMDKLLGGQIGLEDFIFAHVKGQRKEVEVFKSEDALGLTITDNGAGYAFIKRIKEGSVIDHIHLISVGDMIEAINGQSLLGCRHYEVARLLKELPRGRTFTLKLTEPRKAFDMISQRSAGGRPGSGPQLGTGRGTLRLRSRGPATVEDLPSAFEEKAIEKVDDLLESYMGIRDTELAATMVELGKDKRNPDELAEALDERLGDFAFPDEFVFDVWGAIGDAKVGRY | no binding | –
GIPC1 in colorectal cancer cell lysates (SW620, SW480) (protein, UniProt O14908 1-333) MPLGLGRRKKAPPLVENEEAEPGRGGLGVGEPGPLGGGGSGGPQMGLPPPPPALRPRLVFHTQLAHGSPTGRIEGFTNVKELYGKIAEAFRLPTAEVMFCTLNTHKVDMDKLLGGQIGLEDFIFAHVKGQRKEVEVFKSEDALGLTITDNGAGYAFIKRIKEGSVIDHIHLISVGDMIEAINGQSLLGCRHYEVARLLKELPRGRTFTLKLTEPRKAFDMISQRSAGGRPGSGPQLGTGRGTLRLRSRGPATVEDLPSAFEEKAIEKVDDLLESYMGIRDTELAATMVELGKDKRNPDELAEALDERLGDFAFPDEFVFDVWGAIGDAKVGRY | – | no binding

These are yes or no findings as the source states them, for the method shown. For some assays here: Binding seen in cells or lysates may run through a third protein. For some assays here: Sequences can lack the tags named with a protein.
